The values that follow come from publication doi:10.1101/2023.12.13.571443.

Sequences of proteins named here, by UniProt entry; tags and fusion partners are left off. A change or cut given only in a name is not applied to a line headed by its entry.
UniProt Q9M2D8: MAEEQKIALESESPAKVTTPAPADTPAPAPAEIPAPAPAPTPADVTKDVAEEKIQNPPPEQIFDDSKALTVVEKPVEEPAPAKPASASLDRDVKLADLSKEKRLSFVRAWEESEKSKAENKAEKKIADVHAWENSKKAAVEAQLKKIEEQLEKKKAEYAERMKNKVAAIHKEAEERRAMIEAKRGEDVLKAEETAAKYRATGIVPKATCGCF
UniProt Q9FIJ0: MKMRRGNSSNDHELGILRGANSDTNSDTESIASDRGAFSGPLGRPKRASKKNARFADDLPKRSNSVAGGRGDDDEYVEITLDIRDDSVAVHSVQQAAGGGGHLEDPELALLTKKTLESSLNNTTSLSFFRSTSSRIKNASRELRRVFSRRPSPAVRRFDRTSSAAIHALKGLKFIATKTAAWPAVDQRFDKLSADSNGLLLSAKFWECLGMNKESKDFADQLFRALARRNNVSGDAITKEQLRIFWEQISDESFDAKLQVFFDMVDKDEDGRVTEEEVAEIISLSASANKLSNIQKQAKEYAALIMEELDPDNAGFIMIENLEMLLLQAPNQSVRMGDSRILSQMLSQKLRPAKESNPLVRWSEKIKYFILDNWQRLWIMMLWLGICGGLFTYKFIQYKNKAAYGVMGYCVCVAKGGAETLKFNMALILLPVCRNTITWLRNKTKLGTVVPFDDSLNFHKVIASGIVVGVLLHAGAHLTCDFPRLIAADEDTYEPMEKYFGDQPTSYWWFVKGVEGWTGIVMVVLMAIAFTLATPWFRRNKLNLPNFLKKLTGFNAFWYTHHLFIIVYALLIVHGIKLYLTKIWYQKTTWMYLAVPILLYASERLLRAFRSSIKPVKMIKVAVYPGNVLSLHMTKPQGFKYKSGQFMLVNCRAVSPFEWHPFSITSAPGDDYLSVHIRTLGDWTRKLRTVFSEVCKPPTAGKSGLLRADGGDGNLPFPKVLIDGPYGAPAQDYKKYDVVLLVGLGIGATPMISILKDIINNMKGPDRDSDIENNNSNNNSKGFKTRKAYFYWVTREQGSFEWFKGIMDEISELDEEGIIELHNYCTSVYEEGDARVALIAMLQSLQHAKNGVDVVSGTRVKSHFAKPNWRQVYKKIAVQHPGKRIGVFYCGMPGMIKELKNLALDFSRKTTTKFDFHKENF
UniProt Q9M8T0: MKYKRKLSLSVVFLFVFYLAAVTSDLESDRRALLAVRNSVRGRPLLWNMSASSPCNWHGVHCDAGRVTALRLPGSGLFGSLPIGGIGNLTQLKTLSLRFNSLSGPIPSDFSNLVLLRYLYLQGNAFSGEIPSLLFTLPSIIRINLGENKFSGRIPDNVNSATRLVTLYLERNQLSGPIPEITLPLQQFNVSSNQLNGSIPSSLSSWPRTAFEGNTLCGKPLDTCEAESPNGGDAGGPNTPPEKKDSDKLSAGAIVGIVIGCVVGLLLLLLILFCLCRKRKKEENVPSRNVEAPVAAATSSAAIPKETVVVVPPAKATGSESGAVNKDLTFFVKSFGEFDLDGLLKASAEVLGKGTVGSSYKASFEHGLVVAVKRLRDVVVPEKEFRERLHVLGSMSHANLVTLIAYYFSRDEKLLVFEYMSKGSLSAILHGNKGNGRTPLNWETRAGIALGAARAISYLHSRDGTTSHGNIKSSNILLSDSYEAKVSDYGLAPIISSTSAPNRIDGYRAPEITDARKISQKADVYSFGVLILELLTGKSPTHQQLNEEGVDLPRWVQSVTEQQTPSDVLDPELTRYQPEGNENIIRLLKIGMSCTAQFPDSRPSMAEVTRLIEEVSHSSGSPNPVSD

B1: SYNTAXIN OF PLANTS 71 (SYP71), endogenous (protein, UniProt Q9SF29 1-266)
chain: MTVIDILTRVDSICKKYDKYDVDKQREANISGDDAFARLYGAFETQIETALEKAELVTKEKNRAAAVAMNAEIRRTKARLSEEVPKLQRLAVKRVKGLTTEELAARNDLVLALPARIEAIPDGTAGGPKSTSAWTPSSTTSRPDIKFDSDGRFDDDYFQESNESSQFRQEYEMRKIKQEQGLDMISEGLDALKNMASDMNEELDRQVPLMDEIDTKVDRATSDLKNTNVRLKDTVNQLRSSRNFCIDIVLLCIVLGIAAYLYNVLK
B2: AUTOINHIBITED Ca2+-ATPASE 10 (ACA10), endogenous (protein, UniProt Q9SZR1 1-1069)
chain: MSGQFNNSPRGEDKDVEAGTSSFTEYEDSPFDIASTKNAPVERLRRWRQAALVLNASRRFRYTLDLKREEDKKQMLRKMRAHAQAIRAAHLFKAAASRVTGIASPLPTPGGGDFGIGQEQIVSISRDQNIGALQELGGVRGLSDLLKTNLEKGIHGDDDDILKRKSAFGSNTYPQKKGRSFWRFVWEASQDLTLIILIVAAVASLALGIKTEGIEKGWYDGISIAFAVLLVIVVTATSDYRQSLQFQNLNEEKRNIRLEVTRDGRRVEISIYDIVVGDVIPLNIGDQVPADGVLVAGHSLAVDESSMTGESKIVQKNSTKHPFLMSGCKVADGNGTMLVTGVGVNTEWGLLMASVSEDNGGETPLQVRLNGVATFIGIVGLTVAGVVLFVLVVRYFTGHTKNEQGGPQFIGGKTKFEHVLDDLVEIFTVAVTIVVVAVPEGLPLAVTLTLAYSMRKMMADKALVRRLSACETMGSATTICSDKTGTLTLNEMTVVECYAGLQKMDSPDSSSKLPSAFTSILVEGIAHNTTGSVFRSESGEIQVSGSPTERAILNWAIKLGMDFDALKSESSAVQFFPFNSEKKRGGVAVKSPDSSVHIHWKGAAEIVLGSCTHYMDESESFVDMSEDKMGGLKDAIDDMAARSLRCVAIAFRTFEADKIPTDEEQLSRWELPEDDLILLAIVGIKDPCRPGVKNSVLLCQQAGVKVRMVTGDNIQTAKAIALECGILASDSDASEPNLIEGKVFRSYSEEERDRICEEISVMGRSSPNDKLLLVQSLKRRGHVVAVTGDGTNDAPALHEADIGLAMGIQGTEVAKEKSDIIILDDNFESVVKVVRWGRSVYANIQKFIQFQLTVNVAALVINVVAAISAGEVPLTAVQLLWVNLIMDTLGALALATEPPTDHLMDRAPVGRREPLITNIMWRNLFIQAMYQVTVLLILNFRGISILHLKSKPNAERVKNTVIFNAFVICQVFNEFNARKPDEINIFRGVLRNHLFVGIISITIVLQVVIVEFLGTFASTTKLDWEMWLVCIGIGSISWPLAVIGKLIPVPETPVSQYFRINRWRRNSSG
B3: IMPAIRED OOMYCETE SUSCEPTIBILITY 1 (IOS1), endogenous (receptor, UniProt Q9C8I6 24-894)
chain: QDQSGFISLDCGSPRETSFREKTTNITYISDANFINTGVGGSIKQGYRTQFQQQTWNLRSFPQGIRNCYTLNLTIGDEYLIRANFLHGGYDDKPSTQFELYLGPNLWSTVTTTNETEASIFEMIHILTTDRLQICLVKTGNATPFISALELRKLMNTTYLTRQGSLQTFIRADVGATVNQGYRYGIDVFDRVWTPYNFGNWSQISTNQSVNINNDYQPPEIAMVTASVPTDPDAAMNISLVGVERTVQFYVFMHFAEIQELKSNDTREFNIMYNNKHIYGPFRPLNFTTSSVFTPTEVVADANGQYIFSLQRTGNSTLPPLLNAMEIYSVNLLPQQETDRKEVDAMMNIKSAYGVNKIDWEGDPCVPLDYKWSGVNCTYVDNETPKIISLDLSTSGLTGEILEFISDLTSLEVLDLSNNSLTGSVPEFLANMETLKLINLSGNELNGSIPATLLDKERRGSITLSIEGNTGLCSSTSCATTKKKKKNTVIAPVAASLVSVFLIGAGIVTFLILKRKKRTKLGLNPNSGTGTTPLHSRSHHGFEPPVIAKNRKLTYIDVVKITNNFERVLGRGGFGVVYYGVLNNEPVAVKMLTESTALGYKQFKAEVELLLRVHHKDLTCLVGYCEEGDKMSLIYEFMANGDLKEHLSGKRGPSILTWEGRLRIAAESAQGLEYLHNGCKPQIVHRDIKTTNILLNEKFQAKLADFGLSRSFPLGTETHVSTIVAGTPGYLDPEYYRTNWLTEKSDVFSFGVVLLELVTNQPVIDMKREKSHIAEWVGLMLSRGDINSIVDPKLQGDFDPNTIWKVVETAMTCLNPSSSRRPTMTQVVMDLKECLNMEMARNMGSRMTDSTNDSSIELSMNFTTELNPGAR

Results are given in words; binding and its absence hold for the method and conditions named. Binding seen in cells or lysates may run through a third protein. These calls come from enrichment with a bait or labelling near it, and not all partners need be listed. Tags and fused reporters may be left off the sequences shown.

This test deals with FLS2-GFP (… SENSING2 fused to GFP) (Arabidopsis thaliana) (UniProt Q9FL28). The test can be described thus: affinity purification with mass spectrometry.
“REMORIN 1.2 (REM1.2), endogenous (from UniProt Q9M2D8)”: the binding entry was “binds”.

Regarding “RESPIRATORY BURST OXIDASE HOMOLOG D (RBOHD), endogenous (from UniProt Q9FIJ0 1-921) (enzyme)”, the binding result was “binds”.

Consider “QIAN SHOU KINASE1 (QSK1), endogenous (from UniProt Q9M8T0) (receptor)”, for which the binding result was “binds”.

Regarding B1, the binding entry is “binds”.

For B2, the binding result is “binds”.

Consider B3, for which the binding entry is recorded as “binds”.
